Test results reported in PMC2442193.
These are yes or no findings as the source states them, for the method shown. Binding seen in cells or lysates may run through a third protein. Some results given as binding are weak or reduced against the parent protein; the word gives no strength. Where a sequence is shown, tags or fusion partners need not be part of it.

Chains of the proteins cited; added tags and fusions are not shown. Residues count along the entry.
UniProt Q13526: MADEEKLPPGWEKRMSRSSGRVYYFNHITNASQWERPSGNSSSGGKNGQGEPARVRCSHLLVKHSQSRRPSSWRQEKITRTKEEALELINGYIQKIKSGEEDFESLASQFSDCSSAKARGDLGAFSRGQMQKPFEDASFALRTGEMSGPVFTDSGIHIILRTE
UniProt P13264, residues 55-674: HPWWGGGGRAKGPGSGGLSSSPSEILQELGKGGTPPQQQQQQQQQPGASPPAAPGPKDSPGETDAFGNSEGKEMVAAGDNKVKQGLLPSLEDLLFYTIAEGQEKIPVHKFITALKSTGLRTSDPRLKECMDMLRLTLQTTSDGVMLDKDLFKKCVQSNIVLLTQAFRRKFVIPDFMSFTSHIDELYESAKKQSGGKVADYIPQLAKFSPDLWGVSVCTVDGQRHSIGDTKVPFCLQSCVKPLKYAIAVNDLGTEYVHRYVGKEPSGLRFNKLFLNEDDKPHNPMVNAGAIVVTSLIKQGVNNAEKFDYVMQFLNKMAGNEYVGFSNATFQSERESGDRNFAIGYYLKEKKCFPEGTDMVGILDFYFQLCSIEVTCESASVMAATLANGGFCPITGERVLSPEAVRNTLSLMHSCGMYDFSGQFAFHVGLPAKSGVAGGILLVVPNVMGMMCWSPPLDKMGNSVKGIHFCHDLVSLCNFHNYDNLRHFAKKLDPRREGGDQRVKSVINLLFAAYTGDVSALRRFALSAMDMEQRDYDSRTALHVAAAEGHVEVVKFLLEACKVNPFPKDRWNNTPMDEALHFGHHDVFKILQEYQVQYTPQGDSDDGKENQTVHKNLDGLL

T1: FLAG-BNIP-H full length (expressed in PC12 cells) (human) (UniProt Q86WG3)
T1 sequence: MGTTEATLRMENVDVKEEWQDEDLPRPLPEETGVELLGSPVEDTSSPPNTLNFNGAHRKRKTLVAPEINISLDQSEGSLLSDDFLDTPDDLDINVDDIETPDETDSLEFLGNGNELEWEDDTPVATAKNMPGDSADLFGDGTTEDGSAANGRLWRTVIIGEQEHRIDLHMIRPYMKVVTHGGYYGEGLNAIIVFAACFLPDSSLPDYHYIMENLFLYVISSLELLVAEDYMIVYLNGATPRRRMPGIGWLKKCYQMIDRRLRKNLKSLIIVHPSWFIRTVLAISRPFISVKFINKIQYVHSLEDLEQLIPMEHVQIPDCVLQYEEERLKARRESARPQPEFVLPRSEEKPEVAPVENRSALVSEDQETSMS

T2: FLAG-tagged C-terminal BNIP-H fragment (aa 286–371) (human) (UniProt Q86WG3)
T2 sequence: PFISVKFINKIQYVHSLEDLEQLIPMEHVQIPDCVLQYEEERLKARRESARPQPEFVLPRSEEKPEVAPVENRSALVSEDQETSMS


What was measured:
[1] = target: T1, FLAG-BNIP-H full length (expressed in PC12 cells) (human); assay: co-IP; PC12 cells transfected with FLAG-BNIP-H full length alone or with HA-Pin1 or HA-Rac1, NGF for 24 hours; anti-FLAG precipitate blotted for endogenous kidney-type glutaminase
[2] = target: T2, FLAG-tagged C-terminal BNIP-H fragment (aa 286–371) (human); assay: co-IP; 293T cells co-transfected, no stimulation; lysis buffer 50 mM HEPES pH 7.4, 150 mM NaCl, 1% Triton X-100; anti-FLAG agarose precipitates the FLAG-tagged protein, 4°C; blot with anti-HA
[3] = target: triple FLAG-tagged Pin1 (expressed in PC12 cells) (human) (UniProt Q13526); assay: co-IP; PC12 cells co-transfected and treated with NGF; RIPA lysate; anti-FLAG agarose precipitates triple FLAG-Pin1; blot with anti-HA

binding [2]	Molecule	other results
–	endogenous kidney-type glutaminase (from UniProt P13264 55-674) (enzyme)	binding [1]: binds
no binding	HA-BNIP-H aa 1–190 (expressed in 293T cells) (domain or fragment, UniProt Q86WG3 1-190) MGTTEATLRMENVDVKEEWQDEDLPRPLPEETGVELLGSPVEDTSSPPNTLNFNGAHRKRKTLVAPEINISLDQSEGSLLSDDFLDTPDDLDINVDDIETPDETDSLEFLGNGNELEWEDDTPVATAKNMPGDSADLFGDGTTEDGSAANGRLWRTVIIGEQEHRIDLHMIRPYMKVVTHGGYYGEGLNA	–
binds	HA-BNIP-H aa 1–287 (expressed in 293T cells) (domain or fragment, UniProt Q86WG3 1-287) MGTTEATLRMENVDVKEEWQDEDLPRPLPEETGVELLGSPVEDTSSPPNTLNFNGAHRKRKTLVAPEINISLDQSEGSLLSDDFLDTPDDLDINVDDIETPDETDSLEFLGNGNELEWEDDTPVATAKNMPGDSADLFGDGTTEDGSAANGRLWRTVIIGEQEHRIDLHMIRPYMKVVTHGGYYGEGLNAIIVFAACFLPDSSLPDYHYIMENLFLYVISSLELLVAEDYMIVYLNGATPRRRMPGIGWLKKCYQMIDRRLRKNLKSLIIVHPSWFIRTVLAISRPF	–
–	HA-BNIP-2 (protein, UniProt Q12982 1-314) MEGVELKEEWQDEDFPIPLPEDDSIEADILAITGPEDQPGSLEVNGNKVRKKLMAPDISLTLDPSDGSVLSDDLDESGEIDLDGLDTPSENSNEFEWEDDLPKPKTTEVIRKGSITEYTAAEEKEDGRRWRMFRIGEQDHRVDMKAIEPYKKVISHGGYYGDGLNAIVVFAVCFMPESSQPNYRYLMDNLFKYVIGTLELLVAENYMIVYLNGATTRRKMPSLGWLRKCYQQIDRRLRKNLKSLIIVHPSWFIRTLLAVTRPFISSKFSQKIRYVFNLAELAELVPMEYVGIPECIKQVDQELNGKQDEPKNEQ	binding [3]: no binding
